Laboratory results published in ChEMBL document CHEMBL5674883, “The Heterochromatin Landscape in Migrating Cells and the Importance of H3K27me3 for Associated Transcriptome Alterations” (Cells, 2018).
Further values from the same series stand in other lists.

Amino acid sequences for entries named in this document (tags omitted).
UniProt Q61188, whole entry: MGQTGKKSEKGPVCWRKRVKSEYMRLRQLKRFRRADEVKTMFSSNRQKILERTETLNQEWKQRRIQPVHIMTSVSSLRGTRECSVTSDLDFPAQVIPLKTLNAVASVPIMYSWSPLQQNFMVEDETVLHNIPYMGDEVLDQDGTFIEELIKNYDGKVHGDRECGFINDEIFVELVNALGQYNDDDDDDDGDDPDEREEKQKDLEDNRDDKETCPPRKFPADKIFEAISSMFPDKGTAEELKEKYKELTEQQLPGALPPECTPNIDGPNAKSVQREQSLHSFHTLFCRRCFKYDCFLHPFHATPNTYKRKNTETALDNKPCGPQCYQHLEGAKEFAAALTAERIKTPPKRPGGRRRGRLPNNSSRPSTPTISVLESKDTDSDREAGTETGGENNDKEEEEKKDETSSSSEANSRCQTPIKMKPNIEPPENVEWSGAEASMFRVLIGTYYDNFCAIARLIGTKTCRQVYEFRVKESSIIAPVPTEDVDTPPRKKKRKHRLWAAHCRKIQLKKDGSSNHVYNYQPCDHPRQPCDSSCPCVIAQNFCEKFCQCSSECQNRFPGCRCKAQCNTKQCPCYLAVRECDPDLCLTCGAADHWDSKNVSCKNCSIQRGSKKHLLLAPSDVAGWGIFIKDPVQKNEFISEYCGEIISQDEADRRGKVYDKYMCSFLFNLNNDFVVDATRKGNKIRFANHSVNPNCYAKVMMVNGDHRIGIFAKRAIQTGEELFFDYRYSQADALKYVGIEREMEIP

How the values were obtained:
Type in all cases: cell-based
[1] = target: Histone-lysine N-methyltransferase EZH2 (Mus musculus) (UniProt Q61188); assay: Inhibition of EZH2 in mouse B16-F1 migrating cells assessed as fold change in H3K27me3-independent regulated Rhov-mRNA expression at 3 uM measured by ChIP-seq analysis relative to control cells
[2] = target: Histone-lysine N-methyltransferase EZH2 (Mus musculus) (UniProt Q61188); assay: Inhibition of EZH2 in mouse B16-F1 migrating cells assessed as fold change in H3K27me3-independent regulated Gm10639-mRNA expression at 3 uM measured by ChIP-seq analysis relative to control cells
[3] = target: Histone-lysine N-methyltransferase EZH2 (Mus musculus) (UniProt Q61188); assay: Inhibition of EZH2 in mouse B16-F1 migrating cells assessed as fold change in H3K27me3-independent regulated Zfp469-mRNA expression at 3 uM measured by ChIP-seq analysis relative to control cells
[4] = target: Histone-lysine N-methyltransferase EZH2 (Mus musculus) (UniProt Q61188); assay: Inhibition of EZH2 in mouse B16-F1 migrating cells assessed as fold change in H3K27me3-buffered regulated Adgrg3-mRNA expression at 3 uM measured by ChIP-seq analysis relative to control cells
[5] = target: Histone-lysine N-methyltransferase EZH2 (Mus musculus) (UniProt Q61188); assay: Inhibition of EZH2 in mouse B16-F1 migrating cells assessed as fold change in H3K27me3-buffered regulated Kcnk5-mRNA expression at 3 uM measured by ChIP-seq analysis relative to control cells
[6] = target: Histone-lysine N-methyltransferase EZH2 (Mus musculus) (UniProt Q61188); assay: Inhibition of EZH2 in mouse B16-F1 migrating cells assessed as fold change in H3K27me3-buffered regulated BC022687-mRNA expression at 3 uM measured by ChIP-seq analysis relative to control cells
[7] = target: Histone-lysine N-methyltransferase EZH2 (Mus musculus) (UniProt Q61188); assay: Inhibition of EZH2 in mouse B16-F1 migrating cells assessed as fold change in H3K27me3-buffered regulated Gclm-mRNA expression at 3 uM measured by ChIP-seq analysis relative to control cells
[8] = target: Histone-lysine N-methyltransferase EZH2 (Mus musculus) (UniProt Q61188); assay: Inhibition of EZH2 in mouse B16-F1 migrating cells assessed as fold change in H3K27me3-buffered regulated Bag3-mRNA expression at 3 uM measured by ChIP-seq analysis relative to control cells
[9] = target: Histone-lysine N-methyltransferase EZH2 (Mus musculus) (UniProt Q61188); assay: Inhibition of EZH2 in mouse B16-F1 migrating cells assessed as fold change in H3K27me3-buffered regulated Pcyt1b-mRNA expression at 3 uM measured by ChIP-seq analysis relative to control cells
[10] = target: Histone-lysine N-methyltransferase EZH2 (Mus musculus) (UniProt Q61188); assay: Inhibition of EZH2 in mouse B16-F1 migrating cells assessed as fold change in H3K27me3-buffered regulated Ckap2-mRNA expression at 3 uM measured by ChIP-seq analysis relative to control cells
[11] = target: Histone-lysine N-methyltransferase EZH2 (Mus musculus) (UniProt Q61188); assay: Inhibition of EZH2 in mouse B16-F1 migrating cells assessed as fold change in H3K27me3-buffered regulated Mettl17-mRNA expression at 3 uM measured by ChIP-seq analysis relative to control cells
[12] = target: Histone-lysine N-methyltransferase EZH2 (Mus musculus) (UniProt Q61188); assay: Inhibition of EZH2 in mouse B16-F1 migrating cells assessed as fold change in H3K27me3-buffered regulated Ints6l-mRNA expression at 3 uM measured by ChIP-seq analysis relative to control cells
[13] = target: Histone-lysine N-methyltransferase EZH2 (Mus musculus) (UniProt Q61188); assay: Inhibition of EZH2 in mouse B16-F1 migrating cells assessed as fold change in H3K27me3-buffered regulated Magix-mRNA expression at 3 uM measured by ChIP-seq analysis relative to control cells
[14] = target: Histone-lysine N-methyltransferase EZH2 (Mus musculus) (UniProt Q61188); assay: Inhibition of EZH2 in mouse B16-F1 migrating cells assessed as fold change in H3K27me3-buffered regulated Cdc42ep3-mRNA expression at 3 uM measured by ChIP-seq analysis relative to control cells
[15] = target: T1, RNA polymerase II (Mus musculus) (UniProt P08775+Q8CFI7+P97760+A0A3Q4L2S8+Q80UW8+P61219+P62488+Q923G2+P60898+O08740+Q63871+P62876); assay: Inhibition of RNA polymerase II in mouse B16-F1 migrating cells assessed as fold change in Rplp2-RNA stability at 0.1 mM measured by ChIP-seq analysis relative to control cells
[16] = target: T1, RNA polymerase II (Mus musculus); assay: Inhibition of RNA polymerase II in mouse B16-F1 migrating cells assessed as fold change in Lxn-RNA stability at 0.1 mM measured by ChIP-seq analysis relative to control cells
[17] = target: T1, RNA polymerase II (Mus musculus); assay: Inhibition of RNA polymerase II in mouse B16-F1 migrating cells assessed as fold change in Bola2-RNA stability at 0.1 mM measured by ChIP-seq analysis relative to control cells
[18] = target: T1, RNA polymerase II (Mus musculus); assay: Inhibition of RNA polymerase II in mouse B16-F1 migrating cells assessed as fold change in Vamp2-RNA stability at 0.1 mM measured by ChIP-seq analysis relative to control cells
[19] = target: T1, RNA polymerase II (Mus musculus); assay: Inhibition of RNA polymerase II in mouse B16-F1 migrating cells assessed as fold change in Coa3-RNA stability at 0.1 mM measured by ChIP-seq analysis relative to control cells
[20] = target: T1, RNA polymerase II (Mus musculus); assay: Inhibition of RNA polymerase II in mouse B16-F1 migrating cells assessed as fold change in Rps16-RNA stability at 0.1 mM measured by ChIP-seq analysis relative to control cells
[21] = target: T1, RNA polymerase II (Mus musculus); assay: Inhibition of RNA polymerase II in mouse B16-F1 migrating cells assessed as fold change in Glrb-RNA stability at 0.1 mM measured by ChIP-seq analysis relative to control cells
[22] = target: T1, RNA polymerase II (Mus musculus); assay: Inhibition of RNA polymerase II in mouse B16-F1 migrating cells assessed as fold change in Arhgap18-RNA stability at 0.1 mM measured by ChIP-seq analysis relative to control cells
[23] = target: T1, RNA polymerase II (Mus musculus); assay: Inhibition of RNA polymerase II in mouse B16-F1 migrating cells assessed as fold change in Ankrd13c-RNA stability at 0.1 mM measured by ChIP-seq analysis relative to control cells
[24] = target: T1, RNA polymerase II (Mus musculus); assay: Inhibition of RNA polymerase II in mouse B16-F1 migrating cells assessed as fold change in Rrm2b-RNA stability at 0.1 mM measured by ChIP-seq analysis relative to control cells
[25] = target: T1, RNA polymerase II (Mus musculus); assay: Inhibition of RNA polymerase II in mouse B16-F1 migrating cells assessed as fold change in Suz12-RNA stability at 0.1 mM measured by ChIP-seq analysis relative to control cells
[26] = target: T1, RNA polymerase II (Mus musculus); assay: Inhibition of RNA polymerase II in mouse B16-F1 migrating cells assessed as fold change in Dld-RNA stability at 0.1 mM measured by ChIP-seq analysis relative to control cells
[27] = target: T1, RNA polymerase II (Mus musculus); assay: Inhibition of RNA polymerase II in mouse B16-F1 migrating cells assessed as fold change in Lin7c-RNA stability at 0.1 mM measured by ChIP-seq analysis relative to control cells
[28] = target: T1, RNA polymerase II (Mus musculus); assay: Inhibition of RNA polymerase II in mouse B16-F1 migrating cells assessed as fold change in Cdc27-RNA stability at 0.1 mM measured by ChIP-seq analysis relative to control cells
[29] = target: T1, RNA polymerase II (Mus musculus); assay: Inhibition of RNA polymerase II in mouse B16-F1 migrating cells assessed as fold change in Enc1-RNA stability at 0.1 mM measured by ChIP-seq analysis relative to control cells
[30] = target: T1, RNA polymerase II (Mus musculus); assay: Inhibition of RNA polymerase II in mouse B16-F1 migrating cells assessed as fold change in Kif5b-RNA stability at 0.1 mM measured by ChIP-seq analysis relative to control cells

Compound: CCCc1cc(C)[nH]c(=O)c1CNC(=O)c1cc(-c2ccnc(N3CCN(C)CC3)c2)cc2c1cnn2C(C)C
- log2FC [1]: 2.23
- log2FC [2]: 0.72
- log2FC [3]: 0.5
- log2FC [4]: 1.64
- log2FC [5]: 0.54
- log2FC [6]: 0.48
- log2FC [7]: 0.48
- log2FC [8]: 0.47
- log2FC [9]: 0.43
- log2FC [10]: -0.45
- log2FC [11]: -0.5
- log2FC [12]: -0.51
- log2FC [13]: -0.58
- log2FC [14]: -0.93

Compound: OC[C@H]1O[C@@H](n2cnc3cc(Cl)c(Cl)cc32)[C@H](O)[C@@H]1O
- log2FC [15]: 0.55
- log2FC [16]: 0.54
- log2FC [17]: 0.47
- log2FC [18]: 0.45
- log2FC [19]: 0.44
- log2FC [20]: 0.44
- log2FC [21]: -0.44
- log2FC [22]: -0.5
- log2FC [23]: -0.55
- log2FC [24]: -0.59
- log2FC [25]: -0.6
- log2FC [26]: -0.62
- log2FC [27]: -0.62
- log2FC [28]: -0.7
- log2FC [29]: -0.71
- log2FC [30]: -0.88
